According to PMC8241751, “Influence of the Dabcyl group on the cellular uptake of cationic peptides: short oligoarginines as efficient cell-penetrating peptides” (Amino Acids, 2021):

Experiment: Effect of trypsin digestion (FRET) on the fluorescence signal
Conditions: c = 10 μM, 10 min, measure of intramolecular FRET quenching

CN(C)c1ccc(/N=N/c2ccc(C(=O)N[C@@H](CCCNC(=N)N)C(=O)N[C@@H](CCCNC(=N)N)C(=O)N[C@@H](CCCNC(=N)N)C(=O)N[C@@H](CCCNC(=N)N)C(=O)N[C@@H](CCCNC(=N)N)C(=O)N[C@@H](CCCNC(=N)N)C(=O)N[C@@H](CCCCNC(=O)c3ccc4c(c3)C(=O)OC43c4ccc(O)cc4Oc4cc(O)ccc43)C(N)=O)cc2)cc1 [Dabcyl–Arg6–Lys(Cf)–NH2] (X1-RRRRRRK(5FAM)-NH2)
Increase of fluorescence intensity after digestion by trypsin: 4 times

Dabcyl–RRRRRRK(Rh)–NH2 [Dabcyl–Arg6–Lys(Rh)–NH2, Dabcyl-modified hexaarginine with carboxytetramethylrhodamine on lysine]
Increase of fluorescence intensity after digestion by trypsin: 1.8 times

Where a SMILES comes first, the peptide text is derived from it. The star is where a group is joined. 5FAM = O=C1OC2(c3ccc(O)cc3Oc3cc(O)ccc32)c2ccc(C(=O)*)cc21; X1 = CN(C)c1ccc(/N=N/c2ccc(C(=O)*)cc2)cc1
